Results on one substance are retold here after PMC4405365.

By UniProt entry, the sequences of proteins in these tests, tags left out. Where a name states a change or a piece, a line headed by the entry shows the natural chain unless it says otherwise.
UniProt Q9JKS6: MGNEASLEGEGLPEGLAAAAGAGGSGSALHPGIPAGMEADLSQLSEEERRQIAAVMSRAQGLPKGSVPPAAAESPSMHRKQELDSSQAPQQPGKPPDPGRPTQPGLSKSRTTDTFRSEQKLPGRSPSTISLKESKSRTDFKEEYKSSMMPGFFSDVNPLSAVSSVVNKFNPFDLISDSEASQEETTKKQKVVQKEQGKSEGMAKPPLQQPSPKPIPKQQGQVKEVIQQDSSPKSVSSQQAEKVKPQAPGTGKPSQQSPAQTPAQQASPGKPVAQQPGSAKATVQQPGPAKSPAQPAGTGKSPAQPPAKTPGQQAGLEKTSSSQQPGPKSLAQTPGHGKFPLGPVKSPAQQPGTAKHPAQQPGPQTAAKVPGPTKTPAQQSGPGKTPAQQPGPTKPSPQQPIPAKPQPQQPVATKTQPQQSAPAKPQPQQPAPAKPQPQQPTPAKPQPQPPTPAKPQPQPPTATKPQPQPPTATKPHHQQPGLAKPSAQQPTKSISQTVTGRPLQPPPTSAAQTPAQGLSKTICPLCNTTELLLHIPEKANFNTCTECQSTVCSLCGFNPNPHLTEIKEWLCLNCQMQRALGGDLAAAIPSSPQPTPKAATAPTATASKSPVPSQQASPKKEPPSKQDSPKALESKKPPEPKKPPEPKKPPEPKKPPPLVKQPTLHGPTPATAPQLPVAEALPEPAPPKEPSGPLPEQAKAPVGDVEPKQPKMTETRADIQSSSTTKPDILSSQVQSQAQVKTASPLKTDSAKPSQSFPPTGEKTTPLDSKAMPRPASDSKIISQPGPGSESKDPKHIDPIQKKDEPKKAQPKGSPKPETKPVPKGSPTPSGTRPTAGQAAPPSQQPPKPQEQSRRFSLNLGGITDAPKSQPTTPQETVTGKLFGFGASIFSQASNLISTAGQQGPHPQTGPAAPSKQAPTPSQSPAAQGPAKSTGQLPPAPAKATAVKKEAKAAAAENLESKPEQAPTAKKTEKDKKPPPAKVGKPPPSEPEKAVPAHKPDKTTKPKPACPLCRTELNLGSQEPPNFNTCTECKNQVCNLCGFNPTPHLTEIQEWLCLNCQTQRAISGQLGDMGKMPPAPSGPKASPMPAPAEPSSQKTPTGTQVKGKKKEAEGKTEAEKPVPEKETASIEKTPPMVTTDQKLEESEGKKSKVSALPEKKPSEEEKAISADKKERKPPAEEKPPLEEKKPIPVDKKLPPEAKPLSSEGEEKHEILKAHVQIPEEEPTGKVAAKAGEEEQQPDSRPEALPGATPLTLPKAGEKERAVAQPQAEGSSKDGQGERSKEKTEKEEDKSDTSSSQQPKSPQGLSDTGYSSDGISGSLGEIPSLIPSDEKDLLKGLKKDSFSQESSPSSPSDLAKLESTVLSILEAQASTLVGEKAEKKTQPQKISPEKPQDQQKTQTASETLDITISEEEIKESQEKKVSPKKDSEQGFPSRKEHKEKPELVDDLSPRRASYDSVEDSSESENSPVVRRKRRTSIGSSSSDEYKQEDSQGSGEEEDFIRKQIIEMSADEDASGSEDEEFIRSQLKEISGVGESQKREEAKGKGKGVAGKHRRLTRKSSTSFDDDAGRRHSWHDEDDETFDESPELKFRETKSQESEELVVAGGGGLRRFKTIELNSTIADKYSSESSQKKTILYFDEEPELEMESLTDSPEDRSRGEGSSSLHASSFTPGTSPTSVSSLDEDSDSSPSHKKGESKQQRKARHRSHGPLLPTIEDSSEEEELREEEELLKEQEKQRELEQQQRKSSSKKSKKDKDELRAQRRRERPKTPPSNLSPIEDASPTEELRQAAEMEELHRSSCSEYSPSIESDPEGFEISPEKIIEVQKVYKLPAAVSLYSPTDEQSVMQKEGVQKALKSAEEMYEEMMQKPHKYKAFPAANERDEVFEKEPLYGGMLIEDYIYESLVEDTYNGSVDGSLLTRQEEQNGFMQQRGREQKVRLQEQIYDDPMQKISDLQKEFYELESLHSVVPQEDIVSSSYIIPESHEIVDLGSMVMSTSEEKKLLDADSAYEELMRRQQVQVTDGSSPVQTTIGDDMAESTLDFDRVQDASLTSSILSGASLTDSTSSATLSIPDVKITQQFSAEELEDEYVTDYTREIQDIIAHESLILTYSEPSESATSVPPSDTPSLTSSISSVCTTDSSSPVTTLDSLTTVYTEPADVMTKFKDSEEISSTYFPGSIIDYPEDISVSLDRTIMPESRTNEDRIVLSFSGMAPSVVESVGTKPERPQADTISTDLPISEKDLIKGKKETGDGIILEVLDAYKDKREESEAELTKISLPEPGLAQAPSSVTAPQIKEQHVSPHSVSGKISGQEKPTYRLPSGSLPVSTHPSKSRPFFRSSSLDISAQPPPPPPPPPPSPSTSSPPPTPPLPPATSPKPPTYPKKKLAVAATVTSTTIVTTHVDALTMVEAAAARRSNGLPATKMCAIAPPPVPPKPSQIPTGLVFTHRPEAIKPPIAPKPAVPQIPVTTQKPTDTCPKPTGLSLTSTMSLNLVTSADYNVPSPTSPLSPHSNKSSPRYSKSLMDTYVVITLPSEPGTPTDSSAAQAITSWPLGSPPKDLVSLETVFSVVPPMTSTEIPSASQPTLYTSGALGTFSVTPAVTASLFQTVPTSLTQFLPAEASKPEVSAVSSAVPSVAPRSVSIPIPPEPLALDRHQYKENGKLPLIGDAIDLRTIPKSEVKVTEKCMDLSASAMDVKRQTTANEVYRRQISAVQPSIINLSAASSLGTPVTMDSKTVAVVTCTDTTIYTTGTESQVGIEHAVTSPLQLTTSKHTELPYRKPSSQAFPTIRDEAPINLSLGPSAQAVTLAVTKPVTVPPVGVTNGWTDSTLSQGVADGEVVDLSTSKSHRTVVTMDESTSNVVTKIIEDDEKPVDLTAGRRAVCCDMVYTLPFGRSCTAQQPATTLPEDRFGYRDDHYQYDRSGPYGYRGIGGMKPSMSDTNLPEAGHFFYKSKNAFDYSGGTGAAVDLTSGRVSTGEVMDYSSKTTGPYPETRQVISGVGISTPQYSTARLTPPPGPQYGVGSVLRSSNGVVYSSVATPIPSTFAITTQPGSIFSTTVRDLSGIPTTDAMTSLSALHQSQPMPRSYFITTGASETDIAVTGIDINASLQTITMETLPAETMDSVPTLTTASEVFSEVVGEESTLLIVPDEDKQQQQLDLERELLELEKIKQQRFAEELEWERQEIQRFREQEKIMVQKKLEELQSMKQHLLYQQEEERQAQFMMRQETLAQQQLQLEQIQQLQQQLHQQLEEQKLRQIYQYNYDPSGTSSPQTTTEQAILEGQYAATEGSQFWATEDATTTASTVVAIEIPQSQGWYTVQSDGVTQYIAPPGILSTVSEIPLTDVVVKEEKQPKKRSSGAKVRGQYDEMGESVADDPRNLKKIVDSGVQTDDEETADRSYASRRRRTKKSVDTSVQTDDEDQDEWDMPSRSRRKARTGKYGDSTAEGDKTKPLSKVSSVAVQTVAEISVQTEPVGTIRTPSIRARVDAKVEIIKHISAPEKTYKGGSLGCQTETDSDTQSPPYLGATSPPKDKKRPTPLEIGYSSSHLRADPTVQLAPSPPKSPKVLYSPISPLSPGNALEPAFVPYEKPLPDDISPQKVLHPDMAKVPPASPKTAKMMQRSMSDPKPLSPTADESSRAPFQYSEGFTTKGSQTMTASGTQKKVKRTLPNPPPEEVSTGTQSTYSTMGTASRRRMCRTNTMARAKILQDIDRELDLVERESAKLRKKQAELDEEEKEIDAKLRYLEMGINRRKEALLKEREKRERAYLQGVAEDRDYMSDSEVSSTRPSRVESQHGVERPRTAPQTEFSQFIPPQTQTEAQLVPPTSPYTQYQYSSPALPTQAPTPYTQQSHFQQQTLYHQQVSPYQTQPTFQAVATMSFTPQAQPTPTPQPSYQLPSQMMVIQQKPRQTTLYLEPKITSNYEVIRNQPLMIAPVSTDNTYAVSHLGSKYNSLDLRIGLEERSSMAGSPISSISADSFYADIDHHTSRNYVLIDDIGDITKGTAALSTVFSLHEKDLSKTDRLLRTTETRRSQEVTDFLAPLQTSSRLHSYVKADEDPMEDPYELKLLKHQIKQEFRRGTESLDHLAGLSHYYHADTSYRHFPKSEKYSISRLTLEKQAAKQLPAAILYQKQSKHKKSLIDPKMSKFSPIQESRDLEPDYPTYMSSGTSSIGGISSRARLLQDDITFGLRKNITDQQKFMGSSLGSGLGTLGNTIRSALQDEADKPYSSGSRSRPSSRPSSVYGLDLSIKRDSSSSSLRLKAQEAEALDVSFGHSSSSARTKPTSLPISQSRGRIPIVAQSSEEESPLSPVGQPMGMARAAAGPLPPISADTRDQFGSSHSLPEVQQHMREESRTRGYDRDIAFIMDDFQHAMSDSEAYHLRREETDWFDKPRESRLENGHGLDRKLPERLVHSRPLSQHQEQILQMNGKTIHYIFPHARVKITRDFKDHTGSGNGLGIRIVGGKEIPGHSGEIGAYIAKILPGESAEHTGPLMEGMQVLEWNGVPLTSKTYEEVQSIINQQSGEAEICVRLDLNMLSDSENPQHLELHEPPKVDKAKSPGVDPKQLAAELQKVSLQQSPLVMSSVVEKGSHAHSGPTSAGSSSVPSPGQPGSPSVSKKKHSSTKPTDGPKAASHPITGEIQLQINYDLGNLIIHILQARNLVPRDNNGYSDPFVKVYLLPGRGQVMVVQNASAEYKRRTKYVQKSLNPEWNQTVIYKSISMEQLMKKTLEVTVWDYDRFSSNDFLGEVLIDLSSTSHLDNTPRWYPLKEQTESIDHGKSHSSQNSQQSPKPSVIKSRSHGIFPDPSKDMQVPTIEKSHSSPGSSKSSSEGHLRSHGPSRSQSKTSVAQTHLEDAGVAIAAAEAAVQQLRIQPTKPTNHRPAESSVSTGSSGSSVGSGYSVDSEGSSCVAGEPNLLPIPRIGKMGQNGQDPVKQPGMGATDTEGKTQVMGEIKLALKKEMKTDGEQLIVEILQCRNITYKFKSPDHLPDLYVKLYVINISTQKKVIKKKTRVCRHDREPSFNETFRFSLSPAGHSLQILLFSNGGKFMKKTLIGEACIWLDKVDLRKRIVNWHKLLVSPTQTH
UniProt Q8BPM0: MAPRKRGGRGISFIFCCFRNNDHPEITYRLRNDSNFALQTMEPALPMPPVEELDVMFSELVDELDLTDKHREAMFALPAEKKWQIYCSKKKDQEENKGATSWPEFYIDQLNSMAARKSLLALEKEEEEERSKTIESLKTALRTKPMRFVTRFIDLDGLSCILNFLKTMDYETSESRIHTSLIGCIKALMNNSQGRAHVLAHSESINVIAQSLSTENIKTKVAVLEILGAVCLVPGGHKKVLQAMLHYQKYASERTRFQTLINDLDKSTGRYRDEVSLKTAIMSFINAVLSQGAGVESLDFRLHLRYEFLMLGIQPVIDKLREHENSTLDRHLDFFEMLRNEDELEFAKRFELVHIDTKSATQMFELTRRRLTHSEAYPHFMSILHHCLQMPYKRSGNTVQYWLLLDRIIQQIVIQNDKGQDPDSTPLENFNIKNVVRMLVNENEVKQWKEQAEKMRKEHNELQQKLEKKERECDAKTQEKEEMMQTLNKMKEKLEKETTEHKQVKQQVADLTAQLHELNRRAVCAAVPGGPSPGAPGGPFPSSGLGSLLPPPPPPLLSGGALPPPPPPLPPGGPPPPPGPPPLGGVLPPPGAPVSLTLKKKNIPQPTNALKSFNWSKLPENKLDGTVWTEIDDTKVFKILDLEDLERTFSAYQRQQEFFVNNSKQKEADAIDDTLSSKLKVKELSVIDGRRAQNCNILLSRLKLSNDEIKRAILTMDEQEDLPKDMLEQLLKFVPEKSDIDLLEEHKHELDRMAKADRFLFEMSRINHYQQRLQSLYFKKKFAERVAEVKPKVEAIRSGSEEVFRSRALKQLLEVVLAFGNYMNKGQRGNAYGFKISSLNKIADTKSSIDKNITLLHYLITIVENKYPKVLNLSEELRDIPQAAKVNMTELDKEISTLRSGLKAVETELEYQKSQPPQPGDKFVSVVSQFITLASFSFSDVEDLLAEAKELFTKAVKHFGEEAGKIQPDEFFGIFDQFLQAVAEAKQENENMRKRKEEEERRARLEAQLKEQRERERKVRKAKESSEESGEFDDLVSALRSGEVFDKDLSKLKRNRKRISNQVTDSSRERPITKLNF

No constants are given. Whether binding was seen depends on the method and setting. Binding seen in cells or lysates may run through a third protein.

In the test the target is EGFP-Pclo_(3802-4880) (UniProt Q9JKS6). Briefly: co-IP; COS7 cells co-transfected, lysed in 1% Triton X-100 in 1X PBS with protease inhibitors, 4°C; EGFP antibody or Piccolo 1980-2553 antibody with Protein A/G; Western blot. For orientation: Immunoblotting shows a protein as a band on a membrane.

As to Myc-Daam1 (from UniProt Q8BPM0 1-1077), the binding result is reported as “no binding”.
